Measurements reported in PubChem BioAssay AID652272 (Drosophila RNAi Screening Center, 2013).

- Test: 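Finding fly genes that regulate Hedgehog signal transduction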 (primary screen)
- Cell system: Drosophila clone 8 (Cl8) cells
- Knock-down reagent: long dsRNA against Drosophila genes
- Measurement: 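Plate reader light from a firefly reporter under a ptc promoter fragment that responds to Hedgehog, with Renilla light as transfection reference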
- Reading the numbers: firefly Hh reporter signal: higher = more ptc reporter light; Renilla reference signal: higher = more Renilla control light
- Rule for the call: 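Hit when the z-score averaged over two replicates is under -2 or over +3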
- Calls: active = hit: reporter lowered or raised; inactive = not a hit
In all, the deposit lists about 21,000 reagents; this is a random part of those with a known target gene and a result. Over the whole deposit, 503 (2.4%) are marked active. 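Raw plate light values, not normalised; calls rest on replicate z-scores that were not deposited; hits include reporter decreases as well as increases.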 A number with no mark means an inactive call. A plus sign joins genes that one reagent is predicted to hit. Not given: the amount of reagent, the time to read-out.

| gene | amplicon | firefly Hh reporter signal, replicate 1 | firefly Hh reporter signal, replicate 2 | firefly Hh reporter signal, replicate 3 | Renilla reference signal, replicate 1 | Renilla reference signal, replicate 2 |
| --- | --- | --- | --- | --- | --- | --- |
| wgn | DRSC19998 | 80679 | 2.02e5 | – | 1078 | 7755 |
| CG43373 | DRSC09869 | 1.24e5 | – | – | 1552 | 4045 |
| CG43373 | DRSC09885 | 80182 | – | – | 1544 | 2512 |
| CG32544 | DRSC20033 | 70928 | 1.68e5 | – | 1312 | 7506 |
| CG13299 | DRSC09973 | 57345 | 51660 | – | 6441 | 3760 |
| CG32638 | DRSC18968 | 4.88e5 | 1.58e5 | – | 25344 | 3978 |
| CG14017 | DRSC02348 | 84828 | 40256 | – | 1792 | 4530 |
| eIF4E1 | DRSC11342 | 1.16e5 (active) | 72289 | – | 2971 | 1850 |
| dar1 | DRSC08049 | 88347 | 3.02e5 | – | 2787 | 11094 |
| dar1 | DRSC08233 | 91898 | 53400 | – | 2615 | 4577 |
| Nedd4 | DRSC11234 | 91189 | – | – | 1408 | 2864 |
| Rpn13 | DRSC06379 | 86519 | 47971 | – | 2139 | 3321 |
| Pex10 | DRSC08599 | 1.31e5 | 7.34e5 | 1.32e5 | 5873 | 43696 |
| glob2 | DRSC12560 | 41144 | 89034 | – | 1589 | 3133 |
| CG18180 | DRSC10304 | 79063 | 63226 | – | 3088 | 2872 |
| CG5541 | DRSC19946 | 1.74e5 | 1.18e5 | – | 3981 | 3041 |
| CG15533 | DRSC15069 | 61067 | 89314 | – | 1254 | 2192 |
| Trpm | DRSC06629 | 94456 | 58391 | – | 3849 | 2294 |
| me31B | DRSC03569 | 45732 | 50289 | – | 2185 | 1808 |
| slow | DRSC08589 | 1.44e5 | 93712 | – | 5204 | 3683 |
| slow | DRSC08590 | 41365 | 45235 | – | 4416 | 2681 |
| CG12268 | DRSC14491 | 5.24e5 | 76979 | – | 25432 | 2374 |
| sca | DRSC07677 | 68074 | 39269 | – | 1808 | 3085 |
| CG7058 | DRSC20021 | 56768 | 2.16e5 | – | 1396 | 9623 |
| Ada3 | DRSC20321 | 89460 | 2.91e5 | – | 2096 | 11696 |
| Ada3 | DRSC20322 | 79414 | 1.87e5 | – | 1413 | 7760 |
| Ir64a | DRSC09759 | 52016 | 61659 | – | 6023 | 3770 |
| Ir64a | DRSC09760 | 55105 | 50640 | – | 6195 | 3600 |
| Ir56d | DRSC06590 | 89300 | 58818 | – | 2080 | 3975 |
| Adgf-B | DRSC10568 | 1.00e5 | – | – | 1650 | 3196 |
| mnb | DRSC20058 | 64621 (active) | 32019 | – | 4208 | 1506 |
| mnb | DRSC20353 | 82716 | 2.59e5 | – | 2682 | 10457 |
| CG15254 | DRSC01870 | 1.52e5 | 5.45e5 | 76050 | 3970 | 28258 |
| LPCAT | DRSC18157 | 1.13e5 | 2.55e5 | – | 1728 | 9589 |
| LPCAT | DRSC18257 | 73773 | 2.02e5 | – | 2535 | 8650 |
| CG15012 | DRSC08465 | 1.15e5 | 74540 | – | 5152 | 2763 |
| pb | DRSC12409 | 1.94e5 | – | – | 3920 | – |
| pb | DRSC12629 | 68768 | 71124 | – | 2972 | 2151 |
| Uba5 | DRSC19775 | 1.01e5 | 3.67e5 | – | 4017 | 12803 |
| Aduk | DRSC16451 | 94308 | 1.01e5 | – | 3021 | 2474 |
| Snmp1 | DRSC16168 | 5.56e5 | 94076 | – | 27622 | 502 |
| mRpL16 | DRSC18550 | 1.75e5 | 1.53e5 | – | 3442 | 4944 |
| Girdin | DRSC08292 | 70468 | 29469 | – | 2436 | 1035 |
| unc-4 | DRSC20381 | 1.34e5 | 5.47e5 | 3.40e5 | 5140 | 3611 |
| CG10616 | DRSC09750 | 95810 | 42084 | – | 4059 | 1728 |
| Ced-12 | DRSC02840 | 99728 | 45680 | – | 2528 | 4685 |
| CG10365 | DRSC14234 | 4.99e5 | 1.11e5 | – | 24913 | 3628 |
| Appl | DRSC17728 | 1.48e5 | 78400 | – | 3440 | 2954 |
| CG13070 | DRSC09953 | 1.05e5 | – | – | 4325 | 3228 |
| JMJD6 | DRSC15787 | 1.13e5 | 94074 | – | 5290 | 3643 |
| obst-I | DRSC08339 | 94106 | 67190 | – | 3861 | 2696 |
| Adss | DRSC14162 | 1.51e5 | 71914 | – | 5620 | 2706 |
| Tnks | DRSC14154 | 4.82e5 | 1.12e5 | – | 23084 | 2944 |
| Nup54 | DRSC07282 | 1.18e5 | 59693 | – | 4100 | 2393 |
| CG10147 | DRSC09706 | 51458 | 64730 | – | 5528 | 4416 |
| CG31360 | DRSC13255 | 44361 | 2.11e5 | – | 10555 | 5312 |
| l(1)10Bb | DRSC20346 | 52900 | 1.65e5 | – | 2001 | 8000 |
| Rab4 + CG42239 | DRSC05667 | 96807 | 1.57e5 | – | 2467 | 7250 |
| CG13842 | DRSC14692 | 5.54e5 | 83859 | – | 24522 | 2074 |
| CG3788 | DRSC04418 | 1.00e5 | 84346 | – | 2764 | 7296 |
| D2hgdh | DRSC18577 | 1.78e5 | 1.11e5 | – | 3884 | 3712 |
| CG32536 + CG32537 | DRSC20074 | 1.73e5 | 5.65e5 | 3.33e5 | 6345 | 3571 |
| CG9265 | DRSC03178 | 91384 | 72387 | – | 2541 | 6640 |
| CG9265 | DRSC03179 | 98096 | 50995 | – | 2615 | 4485 |
| Srp54 | DRSC03442 | 67473 (active) | 31427 | – | 4036 | 2261 |
| Klp54D | DRSC07450 | 65031 | 43136 | – | 1746 | 3037 |
| yuri | DRSC01453 | 1.16e5 | 2.29e5 | – | 3242 | 11516 |
| yuri | DRSC01454 | 1.50e5 | 2.02e5 | – | 3731 | 9530 |
| yuri | DRSC01943 | 1.01e5 | 74790 | – | 2576 | 6154 |
| yuri | DRSC01972 | 1.04e5 | 77800 | – | 4307 | 3290 |
| Tmep | DRSC08215 | 82484 | 48609 | – | 4506 | 2864 |
| slf | DRSC00583 | 1.09e5 | 70994 | – | 1824 | 5880 |
| Mvb12 | DRSC20027 | 66091 | 2.24e5 | – | 1677 | 10001 |
